Test system: BALB/c male mice
Assay: Mouse tail flick latency
Assay type: in vivo
Conditions: total plasma concentration, sigmoidal Emax model, SC dosing, read-out: Mouse tail flick EC50, mean ± SE

CN1CC[C@]23c4c5ccc(O)c4O[C@H]2[C@@H](O)C=C[C@H]3[C@H]1C5 [Morphine]
EC50: 0.14 ± 0.03 µM

Reference: PMC8740778, “Translational Pharmacokinetic–Pharmacodynamic Modeling of NaV1.7 Inhibitor MK-2075 to Inform Human Efficacious Dose” (Frontiers in Pharmacology, 2021)
